Measured values as given in patent US20220348676A1.
Results are given in words; binding and its absence hold for the method and conditions named. Some binding calls cover weakened binding; strength is not graded here. For some of these results: Where a sequence is shown, tags or fusion partners need not be part of it.

How the values were obtained:
[1] = biological target: T1, canine CD20 tagged with FLAG, overexpressed on NRK/cCD20, Jurkat/cCD20 and EL-4/cCD20 cells (canine) (UniProt Q3C2E2); assay: flow cytometry on Jurkat/cCD20 cells
T1 sequence (looked up): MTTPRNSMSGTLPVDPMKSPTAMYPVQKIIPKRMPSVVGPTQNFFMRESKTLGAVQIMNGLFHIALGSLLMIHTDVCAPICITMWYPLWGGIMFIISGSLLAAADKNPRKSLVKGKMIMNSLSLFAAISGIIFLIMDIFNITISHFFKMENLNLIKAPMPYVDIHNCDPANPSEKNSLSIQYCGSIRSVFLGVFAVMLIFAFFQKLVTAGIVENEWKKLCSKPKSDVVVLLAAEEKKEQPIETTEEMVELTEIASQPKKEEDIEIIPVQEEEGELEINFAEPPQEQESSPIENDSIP

[2] = biological target: T2, canine CD20 on the canine B-cell lymphoma cell line CLBL-1 (canine) (UniProt Q3C2E2); assay: flow cytometry on CLBL-1 cells
T2 sequence (looked up): T1 sequence (looked up)

[3] = biological target: T1, canine CD20 tagged with FLAG, overexpressed on NRK/cCD20, Jurkat/cCD20 and EL-4/cCD20 cells (canine); assay: flow cytometry on NRK/cCD20 cells
[4] = biological target: T1, canine CD20 tagged with FLAG, overexpressed on NRK/cCD20, Jurkat/cCD20 and EL-4/cCD20 cells (canine); assay: immunoprecipitation from Jurkat/cCD20 lysate, anti-Flag Western blot

Measured: binding

B1: anti-canine CD20 monoclonal antibody (4E1-7) (antibody, V domains shown)
VH: EVQLVESGGGLVQPGASLKLSCVASGFTFNDYWMSWVRQTPGKTMEWIGDIKYDGSYTNYAPSLKNRFTISRDNAKSTLYLQMSNVRSEDTATYYCTREAYYYSGDYWGQGVMVTVSS
VL: DIVLTQSPALAVSLGQRATISCKTNQNVDYYGNSYMHWYQQKPGQQPKLLIYLASNLASGIPARFSGRGSGTDFTLTIDPVEADDTATYYCQQSRNLPYTFGAGTKLELKR
binds: all assays above
